Data as given in paper PMC12774752, “4E-BP1 differentially regulates translation of a subset of human mRNAs” (The Journal of Biological Chemistry, 2025).
No constants are given. Whether binding was seen depends on the method and setting.

Protein sequences, listed by entry. Tags and fused reporters are not part of them. Residues count along the entry.
UniProt Q04637, residues 557-1599: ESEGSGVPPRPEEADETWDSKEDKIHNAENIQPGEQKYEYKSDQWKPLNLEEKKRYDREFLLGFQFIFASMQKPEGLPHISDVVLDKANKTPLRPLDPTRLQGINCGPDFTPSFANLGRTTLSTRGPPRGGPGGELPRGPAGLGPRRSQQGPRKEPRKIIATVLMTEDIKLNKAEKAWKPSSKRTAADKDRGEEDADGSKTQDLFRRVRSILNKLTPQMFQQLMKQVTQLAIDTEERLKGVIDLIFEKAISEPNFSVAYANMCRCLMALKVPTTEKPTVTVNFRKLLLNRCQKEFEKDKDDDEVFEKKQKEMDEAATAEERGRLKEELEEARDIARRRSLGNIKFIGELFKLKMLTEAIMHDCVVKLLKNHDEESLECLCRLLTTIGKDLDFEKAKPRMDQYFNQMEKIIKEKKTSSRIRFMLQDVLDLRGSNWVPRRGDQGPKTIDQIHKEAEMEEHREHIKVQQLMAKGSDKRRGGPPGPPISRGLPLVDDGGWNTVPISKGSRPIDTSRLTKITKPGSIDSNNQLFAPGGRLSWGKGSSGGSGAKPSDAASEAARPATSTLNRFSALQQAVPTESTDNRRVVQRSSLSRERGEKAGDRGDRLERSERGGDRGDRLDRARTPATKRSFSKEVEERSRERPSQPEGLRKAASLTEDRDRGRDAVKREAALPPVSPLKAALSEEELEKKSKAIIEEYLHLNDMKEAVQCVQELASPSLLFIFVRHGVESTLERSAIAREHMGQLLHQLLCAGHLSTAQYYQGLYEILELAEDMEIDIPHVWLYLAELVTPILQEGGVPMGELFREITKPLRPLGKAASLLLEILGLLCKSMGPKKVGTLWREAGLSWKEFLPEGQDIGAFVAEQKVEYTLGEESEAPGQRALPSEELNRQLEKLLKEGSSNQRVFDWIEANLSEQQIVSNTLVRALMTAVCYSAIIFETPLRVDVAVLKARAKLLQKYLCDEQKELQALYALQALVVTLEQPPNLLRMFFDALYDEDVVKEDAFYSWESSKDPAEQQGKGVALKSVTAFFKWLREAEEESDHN

Target: T1, fluorescein-labeled 4E-BP1 peptide (human)
T1 sequence (peptide, Fluorescein isothiocyanate (FITC) conjugated at the Lys residue): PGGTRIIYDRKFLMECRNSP
Assay: fluorescence polarisation; fluorescence anisotropy; 20 nM FITC-labelled 4E-BP1 peptide, free or preincubated with 10 nM eIF4E for 20 min at 25 °C, titrated with protein (eIF4E: 200 ul of 20 nM peptide with 2.5 uM eIF4E); no mRNA; Hill-equation fit; both purified

eIF4GI_(557-1599) (from UniProt Q04637 557-1599) (domain or fragment)
binding: no binding
